The record followed here is article PMC9912943.

These are yes or no findings as the source states them, for the method shown. Binding seen in cells or lysates may run through a third protein. Some binding calls cover weakened binding; strength is not graded here.

The experiment has as its target T1, Imd (immune deficiency adaptor protein), expressed in S2 cells (Drosophila melanogaster) (UniProt Q7K4Z4).
T1 sequence: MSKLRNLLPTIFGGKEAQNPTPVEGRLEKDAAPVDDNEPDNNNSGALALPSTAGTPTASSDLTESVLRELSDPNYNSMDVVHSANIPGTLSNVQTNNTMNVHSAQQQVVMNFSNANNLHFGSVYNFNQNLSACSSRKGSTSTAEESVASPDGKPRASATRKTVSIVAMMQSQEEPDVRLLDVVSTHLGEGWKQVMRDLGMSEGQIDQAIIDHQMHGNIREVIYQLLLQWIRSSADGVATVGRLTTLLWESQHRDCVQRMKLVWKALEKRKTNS
The experiment can be described thus: co-IP; S2 cells co-transfected with IMD and CG4968 plasmids, lysed after 48 h (150 mM NaCl, 50 mM Tris-HCl pH 7.5, 10% glycerol, 0.5% Triton X-100); Anti-Flag affinity gel, 4 °C, 4 h; immunoblot. (In general: Immunoblotting shows a protein as a band on a membrane.)

B1: CG4968 (OTU-type deubiquitinase), expressed in S2 cells (enzyme, UniProt Q9VL00 1-262)
chain: MEPFTHNDGNRDELIIQQKRDIEKEISDTTPLVSEQLPLTCLYAEYSGDEIFTAKIQDLSKKYKFIRRTRPDGNCFFRAFAYSYLEYLISNTSAYQEFKKLAEESKEKLVQLGFPSFTLEDFHETFMEVIQRVSPDNAGGHSTVQDELHKIFNEQGYSDYVVVYLRLITSGKLQEEADFYQNFIEGDLTIEAFRHLEVEPMYKESDHIHIIALCTALGAGVRVEYLDRGEGGTVKAHDFPEGSEPRIYLIYRPGHYDILYPN
For B1, the binding entry is listed as “binds”.
